Laboratory results: PubChem BioAssay AID1259297 (Sanger Institute, 2017)
Aim: 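siRNA screen across the kinome seeking drug partners in cells of colorectal cancer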 (primary screen). Cell system: human RCM1 colorectal cancer cell line. Reagent: siRNA pool against human genes. Conditions: separate arms: DMSO vehicle, or one anchor drug at a mild dose: BYL719 1 µM, cetuximab 5 µg/ml, trametinib 10 nM. Measured: 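Viability per well relative to a non-targeting pool, mean of replicates; robust z-score for knock-down alone; synergy score with BYL719, cetuximab or trametinib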. Reading the numbers: viability z-score, knock-down alone: higher = more viable cells than non-targeting controls. Hit rule: 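Called essential if knock-down without drug gives a viability robust z-score under -3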. Meaning of the calls: active = essential when knocked down alone; inactive = no clear loss of viability alone.
Here is one part, drawn at random, of 794 reagents. 13 of them (1.6%) were called active. 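Calls reflect knock-down without drug only; drug synergy is judged separately, with scores above 0.15 counted as synergy.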 Unmarked entries are inactive. Not all columns of the deposit are shown. The record does not give: the amount of reagent, the time to read-out.

| target | viability z-score, knock-down alone |
| --- | --- |
| MYLK3 | 0.9 |
| AKT1 | 0.9 |
| CDKL2 | -0.333 |
| JAK2 | -0.919 |
| DYRK2 | -1.47 |
| STK26 | 0.546 |
| CTNNB1 | 0.779 |
| TSKS | 0.9 |
| EXOSC10 | 0.817 |
| PKM | -0.115 |
| COASY | -4.07 (active) |
| DAPK3 | -0.0605 |
| PKN2 | -0.613 |
| SYK | -3.66 (active) |
| MAP2K7 | -0.326 |
| CKM | -0.249 |
| CREBBP | -0.158 |
| MAP3K10 | 0.9 |
| TBCK | 0.9 |
| HCK | 0.387 |
| DLG2 | 0.9 |
| ACVR1C | 0.9 |
| ITSN1 | -0.268 |
| PFKL | 0.9 |
| IKBKB | 0.541 |

Reformatted: 7 of the entries above.
target,"viability z-score, knock-down alone"
MAP3K10,0.9
TBCK,0.9
HCK,0.387
DLG2,0.9
ACVR1C,0.9
ITSN1,-0.268
PFKL,0.9

Continued.
| target | viability z-score, knock-down alone |
| --- | --- |
| RPS6KB2 | 0.178 |
| TCF7L2 | 0.9 |
| TLK1 | -1.53 |
| PIK3CA | 0.369 |
| MAP2K2 | -0.588 |
| MAP3K20 | 0.9 |
| BCOR | -1.07 |
| TLK2 | 0.9 |
| DDR2 | 0.503 |
| JAK1 | 0.21 |
| NEK8 | -0.436 |
| MOK | 0.628 |
| MAP3K5 | 0.134 |
| CALM3 | -0.928 |
| THNSL1 | 0.776 |
| PI4K2A | 0.867 |
| AK5 | 0.592 |
| PFKM | 0.9 |
| PRKCE | -0.812 |
| CDK6 | 0.0794 |
| ARID1A | 0.9 |
| CSNK2A1 | 0.877 |
| LIMK1 | -0.727 |
| FGFR2 | 0.9 |
| MAP4K5 | -0.55 |
